# Test results: publication PMC7862700
# The chains behind the UniProt entries cited, without tags or fusion partners. Where a name states a change or a piece, a line headed by the entry shows the natural chain unless it says otherwise.
# UniProt Q00613: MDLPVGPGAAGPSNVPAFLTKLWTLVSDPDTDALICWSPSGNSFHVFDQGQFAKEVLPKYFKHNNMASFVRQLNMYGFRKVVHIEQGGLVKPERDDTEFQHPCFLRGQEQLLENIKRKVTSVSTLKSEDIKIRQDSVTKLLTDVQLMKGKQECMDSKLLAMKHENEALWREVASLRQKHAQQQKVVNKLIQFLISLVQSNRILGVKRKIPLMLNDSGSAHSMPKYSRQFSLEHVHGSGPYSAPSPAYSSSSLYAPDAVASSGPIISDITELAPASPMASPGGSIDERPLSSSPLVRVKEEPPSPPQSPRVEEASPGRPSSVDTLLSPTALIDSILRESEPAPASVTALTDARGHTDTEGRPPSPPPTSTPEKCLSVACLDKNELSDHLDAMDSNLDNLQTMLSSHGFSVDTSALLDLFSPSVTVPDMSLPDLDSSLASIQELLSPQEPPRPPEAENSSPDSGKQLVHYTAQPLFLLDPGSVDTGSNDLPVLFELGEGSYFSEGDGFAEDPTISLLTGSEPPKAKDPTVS
# The entries are a selection whose mix differs from that of the whole data set. For part of these data: At the low end of the ranking, values are background and their order means little. The list shows a part of the results. For part of these data: The source does not settle which construct or isoform was used.
# Columns and labels:
# HSF1 = HSF1 (UniProt Q00613); test: DAPPL (digital affinity profiling via proximity ligation, sequencing); details: 10 mM Tris-HCl pH 7.5, 50 mM NaCl, 1 mM DTT, 4% glycerol, room temperature, 30 min; GST-TFs on glutathione beads, 16-mer random dsDNA library, 0.1% …; high values mean tight binding; double strand, one strand shown; scale: fold enrichment (6-mer frequency, TF over GST control)
# ELF2 = target: T1, ELF2 (UniProt Q15723); test: as above; details: 10 mM Tris-HCl pH 7.5, 50 mM NaCl, 1 mM DTT, 4% glycerol, room temperature, 30 min; GST-TFs on glutathione beads, 16-mer random dsDNA library, 0.1% …; high values mean tight binding; double strand, one strand shown; scale: fold enrichment (6-mer frequency, TF over GST control)
# T1 sequence: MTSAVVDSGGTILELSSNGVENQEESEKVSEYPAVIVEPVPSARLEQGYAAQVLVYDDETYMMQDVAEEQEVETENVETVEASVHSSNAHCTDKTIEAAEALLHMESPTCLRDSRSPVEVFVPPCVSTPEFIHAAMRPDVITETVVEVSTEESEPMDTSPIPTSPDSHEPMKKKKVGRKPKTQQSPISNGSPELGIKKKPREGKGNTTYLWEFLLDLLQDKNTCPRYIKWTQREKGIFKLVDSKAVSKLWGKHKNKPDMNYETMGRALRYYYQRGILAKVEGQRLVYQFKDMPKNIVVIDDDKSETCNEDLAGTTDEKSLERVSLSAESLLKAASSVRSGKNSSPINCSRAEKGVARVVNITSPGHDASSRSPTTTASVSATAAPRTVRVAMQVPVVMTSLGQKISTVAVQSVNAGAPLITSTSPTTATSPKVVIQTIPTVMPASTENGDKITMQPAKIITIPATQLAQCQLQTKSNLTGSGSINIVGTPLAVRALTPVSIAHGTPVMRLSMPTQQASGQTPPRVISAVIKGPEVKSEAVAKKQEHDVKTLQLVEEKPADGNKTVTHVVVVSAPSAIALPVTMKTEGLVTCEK
Sequence,binding signal (HSF1),binding signal (ELF2)
GACGGG,0.369,0.424
GCGTAG,0.745,0.802
ACTGTG,0.397,0.453
GTCGGC,0.321,0.369
ACGTGC,0.593,0.659
CTAGTC,0.957,0.696
GGGGTA,0.608,0.718
CACGGT,0.775,0.887
GGGGTC,0.516,0.619
CAGGCA,0.589,0.721
GGTGAT,0.752,0.755
GAGTAT,0.669,0.587

# Taken from above.
# binding signal (HSF1), ACTGTG reads 0.397
# binding signal (ELF2), GACGGG reads 0.424
